Experimental data from US8618080B2, “Immunomodulatory compounds and treatment of diseases related to an overproduction of inflammatory cytokines” (OM Pharma, priority 2006, dated 2013).
Some entries share one result that the patent states for a list of compounds. At least one compound was matched to its structure with a doubt left.

Test system: Limulus Amoebocyte Lysate
Experiment: Limulus Amoebocyte Lysate chromogenic test (LAL endotoxicity)
Type: biochemical
Method: Endotoxicity was determined first for OM-197-MP-AC and for OM-294-DP by the Limulus Amoebocyte Lysate chromogenic test (Chromogenic-LAL of Bio-Whittaker, kit n° 50-65OU).
The enzymatic reaction is carried out at 37° C. and the formation of the chromogen over time is measured at 405 nm. The time necessary to reach 0.2 units of D.O. is recorded and the endotoxic activity calculated in relation to a LPS standard (standard curve). The results are expressed in EU (Endotoxin Unit) in relation to a standardized preparation of E. coli LPS (1 EU corresponds to 0.08 ng equivalent LPS).

Structure (SMILES) | Endotoxicity, decrease compared to LPS
CCCCCCCCCCCC(=O)O[C@H](CCCCCCCCCCC)CC(=O)N[C@@H](CCOP(=O)(O)O)C(=O)NCCC[C@H](COC(=O)CCCCCN)NC(=O)C[C@H](O)CCCCCCCCCCC [OM-197-MP-AC, (3S, 9R)-3-[(R)-3-dodecanoyloxytetradecanoylamino]-4-oxo-5-aza-9-[(R)-3-hydroxytetradecanoylamino]-decan-1, 10-diol 1-dihydrogenophosphate 10-(6-aminohexanoate)] | at least 10^6 fold decrease
CCCCCCCCCCCC(=O)O[C@H](CCCCCCCCCCC)CC(=O)N[C@@H](CCOP(=O)(O)O)C(=O)NCCC[C@H](COP(=O)(O)O)NC(=O)C[C@H](O)CCCCCCCCCCC [OM-294-DP] | at least 10^6 fold decrease
